Measured data: PubChem BioAssay AID1259274 (Sanger Institute, 2017)
Screen: 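siRNA screen of kinases for partners that act in synergy with targeted drugs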 (primary screen). Cells: human RKO colorectal cancer cells. Knock-down reagent: siRNA pool against human genes. Challenge: anchor drugs BYL719 at 1 µM, cetuximab at 5 µg/ml or trametinib at 10 nM; DMSO vehicle as the no-drug arm. Measurement: 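Viability as fraction of non-targeting pool 2 control, averaged across replicates, robust z-score for single knock-down, and a combination synergy score per anchor drug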. Scale: viability z-score, siRNA alone: higher = more viable cells; low values mean essential gene. Hit rule: 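a single knock-down scoring under -3 on the robust z-score, meaning fewer cells, counts as essential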. Meaning of the calls: active = essential when knocked down alone; inactive = no change alone.
The whole screen tested 794 reagents; shown is an unselected part. 11 of them (1.4%) count as active. 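Calls rest on knock-down without drug only; synergy scores with anchor drugs were not used for the essential call.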 Further read-outs or replicates are left out here. No sequences are given here. The record does not give: the amount of reagent, the time to read-out.

The opening 2 records, ahead of the listing:
{"target": "CAMK2D (calcium/calmodulin dependent protein kinase II delta)", "viability z-score, siRNA alone": 0.145, "call": "inactive"}
{"target": "PAPSS2 (3'-phosphoadenosine 5'-phosphosulfate synthase 2)", "viability z-score, siRNA alone": -0.423, "call": "inactive"}

Main list, from the first entry:
{"target": "CAMK2D (calcium/calmodulin dependent protein kinase II delta)", "viability z-score, siRNA alone": 0.145, "call": "inactive"}
{"target": "PAPSS2 (3'-phosphoadenosine 5'-phosphosulfate synthase 2)", "viability z-score, siRNA alone": -0.423, "call": "inactive"}
{"target": "AKT3 (AKT serine/threonine kinase 3)", "viability z-score, siRNA alone": -2.15, "call": "inactive"}
{"target": "CDKL4 (cyclin dependent kinase like 4)", "viability z-score, siRNA alone": 0.641, "call": "inactive"}
{"target": "PFKL (phosphofructokinase, liver type)", "viability z-score, siRNA alone": 0.281, "call": "inactive"}
{"target": "EPHA1 (EPH receptor A1)", "viability z-score, siRNA alone": 0.0696, "call": "inactive"}
{"target": "AURKA (aurora kinase A)", "viability z-score, siRNA alone": -0.935, "call": "inactive"}
{"target": "INSRR (insulin receptor related receptor)", "viability z-score, siRNA alone": -0.72, "call": "inactive"}
{"target": "PAK5 (p21 (RAC1) activated kinase 5)", "viability z-score, siRNA alone": 0.378, "call": "inactive"}
{"target": "NEK2 (NIMA related kinase 2)", "viability z-score, siRNA alone": 0.44, "call": "inactive"}
{"target": "MAPKAPK3 (MAPK activated protein kinase 3)", "viability z-score, siRNA alone": -0.767, "call": "inactive"}
{"target": "PIK3C3 (phosphatidylinositol 3-kinase catalytic subunit type 3)", "viability z-score, siRNA alone": -0.0819, "call": "inactive"}
{"target": "RPS6KA4 (ribosomal protein S6 kinase A4)", "viability z-score, siRNA alone": -1.35, "call": "inactive"}
{"target": "CSF1R (colony stimulating factor 1 receptor)", "viability z-score, siRNA alone": -1.6, "call": "inactive"}
{"target": "CDC7 (cell division cycle 7)", "viability z-score, siRNA alone": 1.19, "call": "inactive"}
{"target": "CASK (calcium/calmodulin dependent serine protein kinase)", "viability z-score, siRNA alone": -0.123, "call": "inactive"}
{"target": "GUCY2C (guanylate cyclase 2C)", "viability z-score, siRNA alone": -1.02, "call": "inactive"}
{"target": "TRIB1 (tribbles pseudokinase 1)", "viability z-score, siRNA alone": 1.19, "call": "inactive"}
{"target": "ALPK2 (alpha kinase 2)", "viability z-score, siRNA alone": 0.673, "call": "inactive"}
{"target": "CKS1B (CDC28 protein kinase regulatory subunit 1B)", "viability z-score, siRNA alone": -0.512, "call": "inactive"}
{"target": "ABL2 (ABL proto-oncogene 2, non-receptor tyrosine kinase)", "viability z-score, siRNA alone": -0.539, "call": "inactive"}
{"target": "DYRK3 (dual specificity tyrosine phosphorylation regulated kinase 3)", "viability z-score, siRNA alone": 1.13, "call": "inactive"}
{"target": "TESK1 (testis associated actin remodelling kinase 1)", "viability z-score, siRNA alone": 0.895, "call": "inactive"}
{"target": "TGFBR1 (transforming growth factor beta receptor 1)", "viability z-score, siRNA alone": 1.19, "call": "inactive"}
{"target": "IKBKE (inhibitor of nuclear factor kappa B kinase subunit epsilon)", "viability z-score, siRNA alone": -1.21, "call": "inactive"}
{"target": "MARK4 (microtubule affinity regulating kinase 4)", "viability z-score, siRNA alone": 0.131, "call": "inactive"}
{"target": "DGKH (diacylglycerol kinase eta)", "viability z-score, siRNA alone": 0.538, "call": "inactive"}
{"target": "CSNK1D (casein kinase 1 delta)", "viability z-score, siRNA alone": 0.477, "call": "inactive"}
